This is one part of the list. Single values are uncertain, as repeats are few or missing.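 The apoptosis fraction was the count of cleaved-PARP antibody-stained nuclei relative to all DNA-stained nuclei, imaged in 1,536-well plates. Screening doses were set so most cells survived, and baseline and induced cleaved-PARP levels vary greatly across cell lines.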
Each compound was assayed on WM3619 (assay: cleaved PARP positive nuclei fraction relative to DMSO control; melanoma cells; higher = more apoptosis). Settings: library dose: low library concentration; 72 h.

Compared with `CCCCCCCCCCCCCCCCCCOP(=O)([O-])OC1CC[N+](C)(C)CC1` [Perifosine] + CC(=O)c1c(C)c2cnc(Nc3ccc(N4CCNCC4)cn3)nc2n(C2CCCC2)c1=O [palbociclib] (first compound 0.4 µM, partner dose 0.04 µM), `O=C(/C=C/c1cccnc1)NCCCCC1CCN(C(=O)c2ccccc2)CC1` + Nc1ccn([C@@H]2O[C@H](CO)[C@@H](O)C2(F)F)c(=O)n1 [gemcitabine] (first compound 0.01 µM, partner dose 0.0004 µM) is higher in “cleaved PARP positive nuclei fraction” value: 115% for the first, 122% for the second.

First: Cc1ccc(Nc2nccc(N(C)c3ccc4c(C)n(C)nc4c3)n2)cc1S(N)(=O)=O [Pazopanib] + O=C(O)c1ccc2c(c1)nc(Nc1cccc(Cl)c1)c1ccncc12 [CX4945] (first compound 0.4 µM, partner dose 0.4 µM)
Second: Cc1cn(-c2cc(NC(=O)c3ccc(C)c(Nc4nccc(-c5cccnc5)n4)c3)cc(C(F)(F)F)c2)cn1 [nilotinib] + C=C(c1ccc(C(=O)O)cc1)c1cc2c(cc1C)C(C)(C)CCC2(C)C [Bexarotene] (first compound 0.2 µM, partner dose 2 µM)
The “cleaved PARP positive nuclei fraction” value of the first is lower: 78.6% for the first, 111% for the second.

Going from `Cc1cc(Nc2cc(N3CCN(C)CC3)nc(Sc3ccc(NC(=O)C4CC4)cc3)n2)n[nH]1` [Tozasertib] + O=C(O)[C@@H]1[O][Sb](=[O])([O][Sb]2(=[O])[O][C@H]([C@H](O)CO)[C@H](O)[C@H](C(=O)O)[O]2)[O][C@H]([C@H](O)CO)[C@@H]1O [stibogluconate] (first compound 0.006 µM, partner dose 2 µM) to `Cc1ccc(Nc2nccc(N(C)c3ccc4c(C)n(C)nc4c3)n2)cc1S(N)(=O)=O` [Pazopanib] + Cn1c(=O)n(-c2ccc(C(C)(C)C#N)cc2)c2c3cc(-c4cnc5ccccc5c4)ccc3ncc21 [NVP-BEZ235] (first compound 0.4 µM, partner dose 0.004 µM), the “cleaved PARP positive nuclei fraction” value rises from 100% to 111%.

First: O=C(/C=C/c1cccnc1)NCCCCC1CCN(C(=O)c2ccccc2)CC1 + O=C(O)c1ccc2c(c1)nc(Nc1cccc(Cl)c1)c1ccncc12 [CX4945] (first compound 0.01 µM, partner dose 0.4 µM)
Second: Cc1cc(Nc2cc(N3CCN(C)CC3)nc(Sc3ccc(NC(=O)C4CC4)cc3)n2)n[nH]1 [Tozasertib] + CC(C)C[C@H](NC(=O)[C@H](Cc1ccccc1)NC(=O)c1cnccn1)B(O)O [Bortezomib] (first compound 0.006 µM, partner dose 0.001 µM)
The “cleaved PARP positive nuclei fraction” value of the first is lower: 100% for the first, 189% for the second.

First: O=C(/C=C/c1cccnc1)NCCCCC1CCN(C(=O)c2ccccc2)CC1 + Cc1ccc(Nc2nccc(N(C)c3ccc4c(C)n(C)nc4c3)n2)cc1S(N)(=O)=O [Pazopanib] (first compound 0.01 µM, partner dose 0.4 µM)
Second: Cc1cc(Nc2cc(N3CCN(C)CC3)nc(Sc3ccc(NC(=O)C4CC4)cc3)n2)n[nH]1 [Tozasertib] + CS(=O)(=O)CCNCc1ccc(-c2ccc3ncnc(Nc4ccc(OCc5cccc(F)c5)c(Cl)c4)c3c2)o1 [lapatinib] (first compound 0.006 µM, partner dose 0.8 µM)
The “cleaved PARP positive nuclei fraction” value of the first is higher: 238% for the first, 87.7% for the second.

Going from `Cc1ccc(Nc2nccc(N(C)c3ccc4c(C)n(C)nc4c3)n2)cc1S(N)(=O)=O` [Pazopanib] + Nc1nc(F)nc2c1ncn2[C@@H]1O[C@H](CO)[C@@H](O)[C@@H]1O [fludarabine] (first compound 0.4 µM, partner dose 0.2 µM) to `O=C(Nc1cc(C(F)(F)F)cc(C(F)(F)F)c1)c1cc(Cl)ccc1O` + Nc1nc(F)nc2c1ncn2[C@@H]1O[C@H](CO)[C@@H](O)[C@@H]1O [fludarabine] (first compound 0.016 µM, partner dose 0.2 µM), the “cleaved PARP positive nuclei fraction” value falls from 123% to 104%.

Going from `N#CC[C@H](C1CCCC1)n1cc(-c2ncnc3[nH]ccc23)cn1` [ruxolitinib] + CC(=O)c1c(C)c2cnc(Nc3ccc(N4CCNCC4)cn3)nc2n(C2CCCC2)c1=O [palbociclib] (first compound 1 µM, partner dose 0.04 µM) to `O=C(Nc1cc(C(F)(F)F)cc(C(F)(F)F)c1)c1cc(Cl)ccc1O` + O=C(/C=C/c1cccnc1)NCCCCC1CCN(C(=O)c2ccccc2)CC1 [FK866] (first compound 0.016 µM, partner dose 0.01 µM), the “cleaved PARP positive nuclei fraction” value falls from 119% to 103%.

These compounds were tested on WM451Lu in the same assay as above. Settings: library dose: low library concentration; 72 h.

Compared with `N#CC[C@H](C1CCCC1)n1cc(-c2ncnc3[nH]ccc23)cn1` [ruxolitinib] + C=CCNC1=C2C[C@@H](C)C[C@H](OC)[C@H](O)[C@@H](C)/C=C(\C)[C@H](OC(N)=O)[C@@H](OC)/C=C\C=C(/C)C(=O)NC(=CC1=O)C2=O [Tanespimycin] (first compound 1 µM, partner dose 0.002 µM), `Cc1cc(Nc2cc(N3CCN(C)CC3)nc(Sc3ccc(NC(=O)C4CC4)cc3)n2)n[nH]1` [Tozasertib] + CN1CCN(c2ccc3nc(-c4c(N)c5c(F)cccc5[nH]c4=O)[nH]c3c2)CC1 [Dovitinib] (first compound 0.006 µM, partner dose 0.1 µM) is lower in “cleaved PARP positive nuclei fraction” value: 257% for the first, 35.3% for the second.

First: Cc1cn(-c2cc(NC(=O)c3ccc(C)c(Nc4nccc(-c5cccnc5)n4)c3)cc(C(F)(F)F)c2)cn1 [nilotinib] + COCC[n+]1c2c(n(Cc3cnccn3)c1C)C(=O)c1ccccc1C2=O [YM155] (first compound 0.2 µM, partner dose 0.0004 µM)
Second: O=C(Nc1cc(C(F)(F)F)cc(C(F)(F)F)c1)c1cc(Cl)ccc1O + CC(C)C[C@H](NC(=O)[C@H](Cc1ccccc1)NC(=O)c1cnccn1)B(O)O [Bortezomib] (first compound 0.016 µM, partner dose 0.001 µM)
The “cleaved PARP positive nuclei fraction” value of the first is lower: 72.4% for the first, 104% for the second.

Going from `Cc1cn(-c2cc(NC(=O)c3ccc(C)c(Nc4nccc(-c5cccnc5)n4)c3)cc(C(F)(F)F)c2)cn1` [nilotinib] + CCN(CC)CCNC(=O)c1c(C)[nH]c(/C=C2\C(=O)Nc3ccc(F)cc32)c1C [sunitinib] (first compound 0.2 µM, partner dose 0.4 µM) to `Cc1cc(Nc2cc(N3CCN(C)CC3)nc(Sc3ccc(NC(=O)C4CC4)cc3)n2)n[nH]1` [Tozasertib] + CNC(=O)c1cc(Oc2ccc(NC(=O)Nc3ccc(Cl)c(C(F)(F)F)c3)cc2)ccn1 [sorafenib] (first compound 0.006 µM, partner dose 0.4 µM), the “cleaved PARP positive nuclei fraction” value rises from 55.8% to 110%.

Compared with `COc1cc([C@@H]2c3cc4c(cc3[C@@H](O[C@@H]3O[C@@H]5CO[C@@H](C)O[C@H]5[C@H](O)[C@H]3O)[C@H]3COC(=O)[C@H]23)OCO4)cc(OC)c1O` [etoposide] + CNC(=O)c1cc(Oc2ccc(NC(=O)Nc3ccc(Cl)c(C(F)(F)F)c3)cc2)ccn1 [sorafenib] (first compound 0.02 µM, partner dose 0.4 µM), `CC[C@]1(O)C[C@H]2CN(CCc3c([nH]c4ccccc34)[C@@](C(=O)OC)(c3cc4c(cc3OC)N(C=O)[C@H]3[C@@](O)(C(=O)OC)[C@H](OC(C)=O)[C@]5(CC)C=CCN6CC[C@]43[C@@H]65)C2)C1` [vincristine] + Cc1cn(-c2cc(NC(=O)c3ccc(C)c(Nc4nccc(-c5cccnc5)n4)c3)cc(C(F)(F)F)c2)cn1 [nilotinib] (first compound 0.0001 µM, partner dose 0.2 µM) is higher in “cleaved PARP positive nuclei fraction” value: 67.2% for the first, 88.1% for the second.

Going from `COc1cc([C@@H]2c3cc4c(cc3[C@@H](O[C@@H]3O[C@@H]5CO[C@@H](C)O[C@H]5[C@H](O)[C@H]3O)[C@H]3COC(=O)[C@H]23)OCO4)cc(OC)c1O` [etoposide] + Nc1cccc2c1CN(C1CCC(=O)NC1=O)C2=O [lenalidomide] (first compound 0.02 µM, partner dose 1 µM) to `O=c1[nH]nc(Sc2ncc([N+](=O)[O-])s2)n1-c1ccc2c(c1)OCCO2` + Nc1ncn([C@H]2C[C@H](O)[C@@H](CO)O2)c(=O)n1 [decitabine] (first compound 0.2 µM, partner dose 0.1 µM), the “cleaved PARP positive nuclei fraction” value falls from 98.2% to 45.1%.

Going from `N#CC[C@H](C1CCCC1)n1cc(-c2ncnc3[nH]ccc23)cn1` [ruxolitinib] + Nc1cccc2c1CN(C1CCC(=O)NC1=O)C2=O [lenalidomide] (first compound 1 µM, partner dose 1 µM) to `CCCCCCCCCCCCCCCCCCOP(=O)([O-])OC1CC[N+](C)(C)CC1` [Perifosine] + O=C(O)[C@@H]1[O][Sb](=[O])([O][Sb]2(=[O])[O][C@H]([C@H](O)CO)[C@H](O)[C@H](C(=O)O)[O]2)[O][C@H]([C@H](O)CO)[C@@H]1O [stibogluconate] (first compound 0.4 µM, partner dose 2 µM), the “cleaved PARP positive nuclei fraction” value rises from 71.6% to 165%.

For `N#CC[C@H](C1CCCC1)n1cc(-c2ncnc3[nH]ccc23)cn1` [ruxolitinib] + COCC[n+]1c2c(n(Cc3cnccn3)c1C)C(=O)c1ccccc1C2=O [YM155] (first compound 1 µM, partner dose 0.0004 µM), the “cleaved PARP positive nuclei fraction” value was 64.2%.
`N#CC[C@H](C1CCCC1)n1cc(-c2ncnc3[nH]ccc23)cn1` [ruxolitinib] + C[C@]1(O)C[C@@H](c2nc(-c3ccc4ccc(-c5ccccc5)nc4c3)c3c(N)nccn32)C1 [OSI906] (first compound 1 µM, partner dose 0.4 µM) was tested, and the “cleaved PARP positive nuclei fraction” value was 87.9%.
